# Source: patent US8476298B2 (Exelixis, Inc., priority 2003, dated 2013)
# Sequences of proteins named here, by UniProt entry; tags and fusion partners are left off. Residues count along the entry.
# UniProt P10721, 26-976 limits assumed: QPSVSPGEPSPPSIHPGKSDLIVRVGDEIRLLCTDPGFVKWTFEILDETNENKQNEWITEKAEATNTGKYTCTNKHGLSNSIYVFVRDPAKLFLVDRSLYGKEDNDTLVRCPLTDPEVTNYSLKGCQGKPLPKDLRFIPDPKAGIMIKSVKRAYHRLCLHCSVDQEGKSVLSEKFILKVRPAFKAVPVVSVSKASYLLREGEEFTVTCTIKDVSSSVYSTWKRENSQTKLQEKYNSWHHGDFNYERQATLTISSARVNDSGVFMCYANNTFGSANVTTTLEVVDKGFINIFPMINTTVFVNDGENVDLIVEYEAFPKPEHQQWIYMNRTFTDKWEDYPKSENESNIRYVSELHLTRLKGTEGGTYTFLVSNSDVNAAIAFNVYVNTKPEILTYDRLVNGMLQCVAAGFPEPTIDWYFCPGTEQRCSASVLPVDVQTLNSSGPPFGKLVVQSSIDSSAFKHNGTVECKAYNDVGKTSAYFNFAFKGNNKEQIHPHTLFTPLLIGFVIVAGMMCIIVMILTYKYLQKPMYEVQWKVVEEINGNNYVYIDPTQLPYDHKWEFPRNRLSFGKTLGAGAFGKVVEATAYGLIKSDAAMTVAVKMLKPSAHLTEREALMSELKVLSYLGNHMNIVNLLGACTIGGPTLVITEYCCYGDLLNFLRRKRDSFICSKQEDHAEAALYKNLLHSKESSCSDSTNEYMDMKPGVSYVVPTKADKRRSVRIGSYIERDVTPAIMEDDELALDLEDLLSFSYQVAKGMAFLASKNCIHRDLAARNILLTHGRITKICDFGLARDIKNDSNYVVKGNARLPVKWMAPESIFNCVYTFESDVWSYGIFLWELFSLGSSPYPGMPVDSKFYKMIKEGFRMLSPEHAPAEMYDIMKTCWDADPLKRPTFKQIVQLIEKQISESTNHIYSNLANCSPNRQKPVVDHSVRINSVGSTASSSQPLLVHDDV
# UniProt P35916, 725-1298 isoform 1 limits assumed: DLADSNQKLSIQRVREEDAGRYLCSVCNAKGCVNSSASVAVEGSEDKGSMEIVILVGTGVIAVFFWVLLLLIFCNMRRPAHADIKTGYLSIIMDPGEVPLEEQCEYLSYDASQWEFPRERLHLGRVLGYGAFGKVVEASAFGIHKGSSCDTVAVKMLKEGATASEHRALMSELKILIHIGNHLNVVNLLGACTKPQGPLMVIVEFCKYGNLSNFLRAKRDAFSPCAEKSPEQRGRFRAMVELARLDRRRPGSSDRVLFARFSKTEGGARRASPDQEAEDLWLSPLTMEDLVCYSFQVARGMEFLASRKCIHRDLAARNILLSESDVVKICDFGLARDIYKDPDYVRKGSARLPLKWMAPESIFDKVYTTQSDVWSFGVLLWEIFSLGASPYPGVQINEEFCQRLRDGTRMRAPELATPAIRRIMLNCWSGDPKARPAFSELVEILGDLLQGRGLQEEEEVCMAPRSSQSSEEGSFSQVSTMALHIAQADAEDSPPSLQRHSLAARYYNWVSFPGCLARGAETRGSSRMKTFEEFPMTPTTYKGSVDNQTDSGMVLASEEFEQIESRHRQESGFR
# UniProt P36888, 571-993 limits assumed: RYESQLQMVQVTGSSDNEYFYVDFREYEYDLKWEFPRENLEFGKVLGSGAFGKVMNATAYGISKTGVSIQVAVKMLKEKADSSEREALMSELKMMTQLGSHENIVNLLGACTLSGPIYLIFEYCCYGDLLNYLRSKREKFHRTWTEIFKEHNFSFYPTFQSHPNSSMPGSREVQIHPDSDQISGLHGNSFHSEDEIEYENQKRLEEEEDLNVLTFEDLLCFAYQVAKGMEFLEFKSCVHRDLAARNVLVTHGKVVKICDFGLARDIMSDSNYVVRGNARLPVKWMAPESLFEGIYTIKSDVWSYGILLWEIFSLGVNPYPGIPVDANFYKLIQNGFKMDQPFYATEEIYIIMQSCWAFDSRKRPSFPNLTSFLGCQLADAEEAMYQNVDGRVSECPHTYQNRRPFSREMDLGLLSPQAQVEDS
# The structures given here were assigned with low confidence; some may be wrong.
# Key:
# c-Kit kinase = c-Kit kinase (Homo sapiens, UniProt P10721); experiment: c-Kit AlphaScreen kinase assay; format: biochemical; conditions: read-out: c-Kit IC50; Table 4, inhibition as IC50 class;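 further: c-Kit kinase phosphorylating biotinylated poly(Glu,Tyr), ATP near its KM, 1 h reaction at ambient temperature, AlphaScreen chemiluminescence with streptavidin donor and anti-phosphotyrosine acceptor beads, 10-point inhibitor titration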
# [1] = target: Flt-4 (baculovirus expressed human Flt-4 kinase domain D725-R1298) (Homo sapiens, UniProt P35916); experiment: flt-4 Alphascreen Tyrosine Kinase assay; format: biochemical; conditions: read-out: flt4 IC50; Table 4, inhibition as IC50 class;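 further: AlphaScreen chemiluminescence read-out of biotinylated poly(Glu,Tyr) 4:1 phosphorylation via streptavidin donor and PY100 anti-phosphotyrosine acceptor beads, ATP near KM, 1 hr kinase reaction, 10-point dose-response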
# [2] = target: Flt-3 (baculovirus expressed human Flt-3 kinase domain R571-S993) (Homo sapiens, UniProt P36888); conditions: read-out: flt3 IC50; Table 4, inhibition as IC50 class;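 further: Luciferase-coupled chemiluminescent kinase assay, activity read as percent ATP left after a 3 h reaction at room temperature, ATP near KM, 10-point dose-response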
SMILES,IC50 (c-Kit kinase) [nM],IC50 [1] [nM],IC50 [2] [nM]
COc1ccc(CNC(=O)C(=O)Nc2ccc(Oc3ccnc4cc(OCC5CCNCC5)c(OC)cc34)c(F)c2)cc1,< 50,50 to 500,
COc1cc2c(Oc3ccc(NC(=O)C(=O)NC[C@H](C)c4ccccc4)cc3F)ccnc2cc1OCC1CCNCC1,< 50,< 50,50 to 500
COc1cc2c(Oc3ccc(NC(=O)C(=O)NCCc4c(Br)cccc4OC)cc3F)ccnc2cc1OCC1CCNCC1,< 50,< 50,< 50
COc1cc2c(Oc3ccc(NC(=O)C(=O)NCc4ccc(C(F)(F)F)cc4)cc3F)ccnc2cc1OCC1CCN(C)CC1,50 to 500,50 to 500,
COc1cc2c(Oc3ccc(NC(=O)C(=O)NCc4ccccc4F)cc3F)ccnc2cc1OCC1CCNCC1,50 to 500,< 50,
COc1cccc(CNC(=O)C(=O)Nc2ccc(Oc3ccnc4cc(OCC5CCNCC5)c(OC)cc34)c(F)c2)c1,< 50,50 to 500,< 50
COc1cc2c(Oc3ccc(NC(=O)C(=O)NCc4ccc(C(F)(F)F)cc4)cc3F)ccnc2cc1OCC1CCNCC1,50 to 500,< 50,
COc1cc2c(Oc3ccc(NC(=O)C(=O)NCCc4ccccc4Br)cc3F)ccnc2cc1OCC1CCNCC1,< 50,< 50,< 50
COc1cc2c(Oc3ccc(NC(=O)C(=O)NCc4ccc(F)cc4)cc3F)ccnc2cc1OCC1CCNCC1,< 50,< 50,< 50
COc1cc2c(Oc3ccc(NC(=O)C(=O)NCc4ccccc4C(F)(F)F)cc3F)ccnc2cc1OCC1CCNCC1,< 50,< 50,< 50
